# Experimental data reported in PMC8192925.
# The chains behind the UniProt entries cited, without tags or fusion partners. Residues count along the entry.
# UniProt P13500, residues 24-99: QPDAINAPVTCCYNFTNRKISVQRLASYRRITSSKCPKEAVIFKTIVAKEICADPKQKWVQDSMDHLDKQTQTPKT
# UniProt P16070, residues 21-742: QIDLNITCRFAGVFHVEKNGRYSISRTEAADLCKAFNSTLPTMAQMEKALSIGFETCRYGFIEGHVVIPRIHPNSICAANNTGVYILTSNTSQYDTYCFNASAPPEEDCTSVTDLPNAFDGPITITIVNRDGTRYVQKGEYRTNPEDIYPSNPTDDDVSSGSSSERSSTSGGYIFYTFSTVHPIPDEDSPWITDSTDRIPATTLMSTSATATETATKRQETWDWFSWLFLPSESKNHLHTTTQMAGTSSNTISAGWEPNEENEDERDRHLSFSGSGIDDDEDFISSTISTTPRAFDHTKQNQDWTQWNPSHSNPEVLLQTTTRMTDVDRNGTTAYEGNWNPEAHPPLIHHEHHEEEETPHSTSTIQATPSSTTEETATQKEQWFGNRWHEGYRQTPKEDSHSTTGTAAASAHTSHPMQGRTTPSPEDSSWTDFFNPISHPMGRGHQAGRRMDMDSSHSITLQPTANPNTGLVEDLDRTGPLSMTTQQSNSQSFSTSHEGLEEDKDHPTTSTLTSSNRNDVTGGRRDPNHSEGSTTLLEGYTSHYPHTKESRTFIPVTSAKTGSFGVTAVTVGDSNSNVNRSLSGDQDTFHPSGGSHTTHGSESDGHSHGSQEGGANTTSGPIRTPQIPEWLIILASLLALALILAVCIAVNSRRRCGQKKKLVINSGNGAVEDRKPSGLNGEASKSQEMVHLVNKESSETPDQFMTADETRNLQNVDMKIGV
# UniProt P13611, residues 21-3396: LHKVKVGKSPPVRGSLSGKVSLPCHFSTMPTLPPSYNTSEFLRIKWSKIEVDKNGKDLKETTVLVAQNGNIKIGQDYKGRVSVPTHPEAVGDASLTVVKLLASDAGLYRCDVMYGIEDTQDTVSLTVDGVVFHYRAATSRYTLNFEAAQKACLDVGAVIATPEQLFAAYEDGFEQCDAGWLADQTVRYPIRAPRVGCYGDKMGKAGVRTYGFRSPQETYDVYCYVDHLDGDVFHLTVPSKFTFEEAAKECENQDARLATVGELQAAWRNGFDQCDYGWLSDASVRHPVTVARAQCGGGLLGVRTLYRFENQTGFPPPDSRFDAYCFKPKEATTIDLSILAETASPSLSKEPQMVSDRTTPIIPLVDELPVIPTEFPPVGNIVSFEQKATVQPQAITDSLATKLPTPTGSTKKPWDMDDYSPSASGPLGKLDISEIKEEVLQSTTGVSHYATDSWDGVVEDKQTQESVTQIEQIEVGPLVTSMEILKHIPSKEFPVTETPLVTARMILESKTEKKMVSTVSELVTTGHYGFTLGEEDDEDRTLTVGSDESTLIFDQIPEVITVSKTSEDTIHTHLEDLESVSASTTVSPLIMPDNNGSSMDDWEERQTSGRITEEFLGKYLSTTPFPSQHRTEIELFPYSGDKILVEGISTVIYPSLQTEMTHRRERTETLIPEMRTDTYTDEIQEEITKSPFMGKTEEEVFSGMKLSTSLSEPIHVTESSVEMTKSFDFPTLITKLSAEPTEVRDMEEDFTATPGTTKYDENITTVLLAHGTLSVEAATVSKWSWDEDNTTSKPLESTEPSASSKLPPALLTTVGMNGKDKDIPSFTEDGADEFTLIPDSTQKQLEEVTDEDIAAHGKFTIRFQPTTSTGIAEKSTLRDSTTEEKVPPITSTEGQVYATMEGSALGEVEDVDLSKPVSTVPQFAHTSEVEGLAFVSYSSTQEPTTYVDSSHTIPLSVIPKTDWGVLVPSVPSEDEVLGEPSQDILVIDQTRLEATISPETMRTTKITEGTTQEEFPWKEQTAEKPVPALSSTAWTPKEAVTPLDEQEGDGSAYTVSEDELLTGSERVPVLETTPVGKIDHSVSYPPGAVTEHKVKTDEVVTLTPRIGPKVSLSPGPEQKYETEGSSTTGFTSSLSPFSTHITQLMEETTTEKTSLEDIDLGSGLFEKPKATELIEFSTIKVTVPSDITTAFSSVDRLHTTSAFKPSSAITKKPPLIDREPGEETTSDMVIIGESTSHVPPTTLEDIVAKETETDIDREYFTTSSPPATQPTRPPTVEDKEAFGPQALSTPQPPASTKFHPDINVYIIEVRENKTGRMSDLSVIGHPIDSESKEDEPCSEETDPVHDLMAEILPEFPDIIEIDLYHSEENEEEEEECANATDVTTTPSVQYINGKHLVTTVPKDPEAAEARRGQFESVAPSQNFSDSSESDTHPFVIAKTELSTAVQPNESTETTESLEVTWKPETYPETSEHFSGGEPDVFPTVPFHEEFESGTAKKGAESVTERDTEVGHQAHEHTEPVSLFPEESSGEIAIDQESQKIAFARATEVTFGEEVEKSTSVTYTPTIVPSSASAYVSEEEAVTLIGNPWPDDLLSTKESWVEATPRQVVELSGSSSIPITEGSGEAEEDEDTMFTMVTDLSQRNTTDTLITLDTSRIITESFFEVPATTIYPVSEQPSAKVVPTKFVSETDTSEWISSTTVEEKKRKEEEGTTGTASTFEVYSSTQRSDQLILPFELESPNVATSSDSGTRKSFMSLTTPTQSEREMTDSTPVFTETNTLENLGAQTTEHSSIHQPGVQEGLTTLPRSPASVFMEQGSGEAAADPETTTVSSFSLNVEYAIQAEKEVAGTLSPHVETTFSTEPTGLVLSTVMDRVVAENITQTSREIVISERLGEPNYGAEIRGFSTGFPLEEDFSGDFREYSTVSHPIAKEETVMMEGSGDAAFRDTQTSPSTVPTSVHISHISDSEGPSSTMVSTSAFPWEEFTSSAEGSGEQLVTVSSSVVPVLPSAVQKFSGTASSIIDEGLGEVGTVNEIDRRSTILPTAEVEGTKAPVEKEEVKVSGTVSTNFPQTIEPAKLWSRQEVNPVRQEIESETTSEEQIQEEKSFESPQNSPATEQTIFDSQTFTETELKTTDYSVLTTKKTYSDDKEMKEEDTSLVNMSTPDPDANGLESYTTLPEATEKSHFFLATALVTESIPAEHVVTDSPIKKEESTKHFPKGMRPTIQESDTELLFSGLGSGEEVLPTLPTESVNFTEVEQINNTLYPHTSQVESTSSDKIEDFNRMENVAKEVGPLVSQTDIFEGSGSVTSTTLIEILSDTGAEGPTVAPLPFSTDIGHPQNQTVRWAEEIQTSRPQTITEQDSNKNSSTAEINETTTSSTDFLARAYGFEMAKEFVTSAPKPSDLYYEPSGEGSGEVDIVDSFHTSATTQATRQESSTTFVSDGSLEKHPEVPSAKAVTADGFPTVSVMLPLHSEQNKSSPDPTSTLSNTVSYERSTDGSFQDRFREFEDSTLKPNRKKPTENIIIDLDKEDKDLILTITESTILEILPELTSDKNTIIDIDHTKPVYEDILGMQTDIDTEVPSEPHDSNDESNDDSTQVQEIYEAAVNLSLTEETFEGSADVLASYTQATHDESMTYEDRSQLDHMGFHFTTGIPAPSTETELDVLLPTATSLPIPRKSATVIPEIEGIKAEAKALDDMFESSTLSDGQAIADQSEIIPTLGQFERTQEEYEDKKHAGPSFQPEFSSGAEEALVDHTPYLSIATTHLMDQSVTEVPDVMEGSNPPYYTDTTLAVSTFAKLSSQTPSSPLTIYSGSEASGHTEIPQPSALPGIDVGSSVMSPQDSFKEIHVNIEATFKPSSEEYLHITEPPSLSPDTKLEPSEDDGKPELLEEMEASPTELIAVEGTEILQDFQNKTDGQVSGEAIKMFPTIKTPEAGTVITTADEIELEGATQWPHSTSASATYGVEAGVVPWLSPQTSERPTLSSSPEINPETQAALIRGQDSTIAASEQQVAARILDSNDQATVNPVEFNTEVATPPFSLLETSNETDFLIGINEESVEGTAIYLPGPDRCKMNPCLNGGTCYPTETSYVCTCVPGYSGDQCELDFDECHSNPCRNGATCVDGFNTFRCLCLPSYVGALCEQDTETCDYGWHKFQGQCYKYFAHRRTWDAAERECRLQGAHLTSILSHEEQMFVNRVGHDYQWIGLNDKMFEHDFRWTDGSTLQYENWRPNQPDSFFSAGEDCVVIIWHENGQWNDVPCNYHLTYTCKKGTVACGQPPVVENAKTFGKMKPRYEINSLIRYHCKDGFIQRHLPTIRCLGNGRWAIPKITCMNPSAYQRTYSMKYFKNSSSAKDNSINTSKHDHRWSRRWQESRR
# Results are given in words; binding and its absence hold for the method and conditions named. In cells and extracts the contact can be indirect. Some results given as binding are weak or reduced against the parent protein; the word gives no strength.
# Target: recombinant CCL2 (human) (UniProt P13500)
# Experiment: co-IP; MDA-MB-231 exosomes (500 ug/ml) sonicated in binding buffer (50 mM Hepes, 150 mM NaCl, 1% NP-40, 0.5% Triton X-100, pH 7.5), incubated with recombinant CCL2 (10 ug/ml) 1 h 30 min at 37 C; precipitated with anti-CCL2 antibody on Protein A/G agarose overnight at 4 C; detected by western blotting; only the target purified
row,binding,Molecule
1,binds,CD44 (from UniProt P16070 21-742)
2,binds,versican (from UniProt P13611 21-3396)
3,binds,"syndecan-1 (protein, UniProt P18827 23-310, heparan sulfate (HS) and chondroitin sulfate (CS) glycosaminoglycan side chains) QIVATNLPPEDQDGSGDDSDNFSGSGAGALQDITLSQQTPSTWKDTQLLTAIPTSPEPTGLEATAASTSTLPAGEGPKEGEAVVLPEVEPGLTAREQEATPRPRETTQLPTTHLASTTTATTAQEPATSHPHRDMQPGHHETSTPAGPSQADLHTPHTEDGGPSATERAAEDGASSQLPAAEGSGEQDFTFETSGENTAVVAVEPDRRNQSPVDQGATGASQGLLDRKEVLGGVIAGGLVGLIFAVCLVGFMLYRMKKKDEGSYSLEEPKQANGGAYQKPTKQEEFYA"
